# In the supplement of paper PMC6411743:
# The chains behind the UniProt entries cited, without tags or fusion partners. Where a name states a change or a piece, a line headed by the entry shows the natural chain unless it says otherwise.
# UniProt O95365: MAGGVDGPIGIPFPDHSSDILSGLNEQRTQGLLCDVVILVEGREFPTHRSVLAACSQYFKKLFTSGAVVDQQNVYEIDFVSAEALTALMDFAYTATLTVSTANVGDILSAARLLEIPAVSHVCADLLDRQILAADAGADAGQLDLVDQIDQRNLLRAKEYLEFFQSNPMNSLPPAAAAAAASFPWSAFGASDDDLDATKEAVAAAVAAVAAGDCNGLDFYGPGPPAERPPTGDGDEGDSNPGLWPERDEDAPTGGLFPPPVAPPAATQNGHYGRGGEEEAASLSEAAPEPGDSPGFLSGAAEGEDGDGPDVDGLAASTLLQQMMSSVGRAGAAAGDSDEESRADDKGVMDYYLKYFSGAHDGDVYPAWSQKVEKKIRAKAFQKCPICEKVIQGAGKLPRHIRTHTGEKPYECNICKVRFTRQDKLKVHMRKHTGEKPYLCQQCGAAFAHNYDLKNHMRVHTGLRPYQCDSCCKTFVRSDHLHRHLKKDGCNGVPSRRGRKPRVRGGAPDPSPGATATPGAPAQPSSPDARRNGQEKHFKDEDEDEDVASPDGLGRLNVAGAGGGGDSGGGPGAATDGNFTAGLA
# UniProt O75380, whole entry: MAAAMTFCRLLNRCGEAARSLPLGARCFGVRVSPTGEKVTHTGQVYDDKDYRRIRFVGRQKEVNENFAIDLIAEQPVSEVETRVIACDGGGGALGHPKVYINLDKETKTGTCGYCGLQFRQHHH
# UniProt O75396: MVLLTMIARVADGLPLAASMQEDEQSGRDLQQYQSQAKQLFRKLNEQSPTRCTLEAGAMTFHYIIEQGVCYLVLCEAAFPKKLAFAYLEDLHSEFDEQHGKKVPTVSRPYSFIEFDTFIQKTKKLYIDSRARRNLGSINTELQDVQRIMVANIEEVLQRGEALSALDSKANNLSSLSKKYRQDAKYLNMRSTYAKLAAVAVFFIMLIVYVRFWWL
# UniProt O75152: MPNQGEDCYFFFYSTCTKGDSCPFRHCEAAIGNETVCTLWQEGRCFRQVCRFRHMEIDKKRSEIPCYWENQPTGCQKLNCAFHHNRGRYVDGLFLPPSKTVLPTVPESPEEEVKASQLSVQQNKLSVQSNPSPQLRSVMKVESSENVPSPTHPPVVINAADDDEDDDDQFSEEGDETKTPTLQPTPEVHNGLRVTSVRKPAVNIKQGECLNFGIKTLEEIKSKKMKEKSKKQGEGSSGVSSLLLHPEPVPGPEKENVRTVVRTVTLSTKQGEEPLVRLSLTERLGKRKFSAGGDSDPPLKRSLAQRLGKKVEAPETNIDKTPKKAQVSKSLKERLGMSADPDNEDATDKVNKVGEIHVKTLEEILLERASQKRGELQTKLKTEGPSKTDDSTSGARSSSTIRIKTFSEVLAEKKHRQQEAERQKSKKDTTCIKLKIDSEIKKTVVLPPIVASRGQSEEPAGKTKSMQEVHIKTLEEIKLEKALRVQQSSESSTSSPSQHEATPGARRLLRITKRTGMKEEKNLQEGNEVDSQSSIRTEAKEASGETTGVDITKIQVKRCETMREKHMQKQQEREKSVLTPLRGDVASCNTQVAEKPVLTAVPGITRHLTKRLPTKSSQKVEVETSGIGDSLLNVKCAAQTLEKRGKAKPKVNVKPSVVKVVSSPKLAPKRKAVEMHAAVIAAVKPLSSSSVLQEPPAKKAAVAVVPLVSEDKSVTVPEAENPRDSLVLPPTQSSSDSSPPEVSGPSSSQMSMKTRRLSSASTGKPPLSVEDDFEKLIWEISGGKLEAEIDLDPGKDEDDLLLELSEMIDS
# UniProt O60518: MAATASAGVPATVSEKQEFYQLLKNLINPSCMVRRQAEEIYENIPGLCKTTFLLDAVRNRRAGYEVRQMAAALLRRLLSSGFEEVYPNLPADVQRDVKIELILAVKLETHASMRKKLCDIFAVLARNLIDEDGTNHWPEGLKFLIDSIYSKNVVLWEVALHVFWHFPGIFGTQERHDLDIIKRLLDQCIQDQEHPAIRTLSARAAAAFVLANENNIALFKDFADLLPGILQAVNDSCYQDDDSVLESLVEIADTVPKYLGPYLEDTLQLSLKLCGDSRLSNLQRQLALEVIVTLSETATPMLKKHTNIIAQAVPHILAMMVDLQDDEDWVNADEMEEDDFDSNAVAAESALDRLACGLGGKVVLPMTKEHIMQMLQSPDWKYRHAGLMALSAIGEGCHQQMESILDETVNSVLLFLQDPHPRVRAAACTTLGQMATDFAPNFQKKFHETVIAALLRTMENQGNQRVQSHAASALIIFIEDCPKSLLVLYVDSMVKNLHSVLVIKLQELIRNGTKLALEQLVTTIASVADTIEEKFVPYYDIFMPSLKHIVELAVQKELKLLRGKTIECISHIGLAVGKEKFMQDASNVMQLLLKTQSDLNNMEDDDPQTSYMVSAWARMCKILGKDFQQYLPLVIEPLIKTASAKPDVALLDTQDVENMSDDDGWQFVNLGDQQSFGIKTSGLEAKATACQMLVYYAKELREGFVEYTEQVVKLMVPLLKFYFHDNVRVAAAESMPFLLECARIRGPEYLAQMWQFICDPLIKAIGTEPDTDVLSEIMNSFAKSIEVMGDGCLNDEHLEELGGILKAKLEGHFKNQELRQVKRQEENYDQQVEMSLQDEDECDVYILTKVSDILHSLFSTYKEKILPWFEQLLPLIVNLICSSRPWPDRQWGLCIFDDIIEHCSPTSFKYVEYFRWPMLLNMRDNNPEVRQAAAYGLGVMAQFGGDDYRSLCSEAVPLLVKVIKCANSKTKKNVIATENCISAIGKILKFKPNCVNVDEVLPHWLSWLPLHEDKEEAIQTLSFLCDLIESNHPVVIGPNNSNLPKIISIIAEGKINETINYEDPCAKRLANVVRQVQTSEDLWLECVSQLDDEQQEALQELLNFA
# UniProt O95059: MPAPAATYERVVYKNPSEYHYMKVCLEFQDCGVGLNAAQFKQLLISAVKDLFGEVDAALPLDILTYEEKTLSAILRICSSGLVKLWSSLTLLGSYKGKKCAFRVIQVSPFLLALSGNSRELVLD
# UniProt O75330: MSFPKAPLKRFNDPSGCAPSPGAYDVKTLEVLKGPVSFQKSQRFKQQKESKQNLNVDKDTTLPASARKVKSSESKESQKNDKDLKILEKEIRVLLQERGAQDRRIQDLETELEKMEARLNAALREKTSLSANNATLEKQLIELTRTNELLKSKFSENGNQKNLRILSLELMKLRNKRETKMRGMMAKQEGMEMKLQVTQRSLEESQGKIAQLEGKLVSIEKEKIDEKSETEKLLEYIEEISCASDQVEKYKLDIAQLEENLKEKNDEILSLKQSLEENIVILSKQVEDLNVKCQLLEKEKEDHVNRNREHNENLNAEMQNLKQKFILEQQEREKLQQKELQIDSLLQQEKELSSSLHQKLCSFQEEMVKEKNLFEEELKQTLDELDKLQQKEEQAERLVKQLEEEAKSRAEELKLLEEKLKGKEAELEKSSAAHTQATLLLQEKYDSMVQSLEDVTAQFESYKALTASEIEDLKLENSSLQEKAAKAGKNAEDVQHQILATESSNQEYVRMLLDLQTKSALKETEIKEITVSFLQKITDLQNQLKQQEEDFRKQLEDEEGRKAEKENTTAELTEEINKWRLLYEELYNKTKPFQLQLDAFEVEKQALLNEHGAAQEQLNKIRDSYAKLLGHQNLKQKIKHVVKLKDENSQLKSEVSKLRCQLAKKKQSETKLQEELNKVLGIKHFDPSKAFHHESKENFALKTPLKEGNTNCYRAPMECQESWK
# UniProt O75155: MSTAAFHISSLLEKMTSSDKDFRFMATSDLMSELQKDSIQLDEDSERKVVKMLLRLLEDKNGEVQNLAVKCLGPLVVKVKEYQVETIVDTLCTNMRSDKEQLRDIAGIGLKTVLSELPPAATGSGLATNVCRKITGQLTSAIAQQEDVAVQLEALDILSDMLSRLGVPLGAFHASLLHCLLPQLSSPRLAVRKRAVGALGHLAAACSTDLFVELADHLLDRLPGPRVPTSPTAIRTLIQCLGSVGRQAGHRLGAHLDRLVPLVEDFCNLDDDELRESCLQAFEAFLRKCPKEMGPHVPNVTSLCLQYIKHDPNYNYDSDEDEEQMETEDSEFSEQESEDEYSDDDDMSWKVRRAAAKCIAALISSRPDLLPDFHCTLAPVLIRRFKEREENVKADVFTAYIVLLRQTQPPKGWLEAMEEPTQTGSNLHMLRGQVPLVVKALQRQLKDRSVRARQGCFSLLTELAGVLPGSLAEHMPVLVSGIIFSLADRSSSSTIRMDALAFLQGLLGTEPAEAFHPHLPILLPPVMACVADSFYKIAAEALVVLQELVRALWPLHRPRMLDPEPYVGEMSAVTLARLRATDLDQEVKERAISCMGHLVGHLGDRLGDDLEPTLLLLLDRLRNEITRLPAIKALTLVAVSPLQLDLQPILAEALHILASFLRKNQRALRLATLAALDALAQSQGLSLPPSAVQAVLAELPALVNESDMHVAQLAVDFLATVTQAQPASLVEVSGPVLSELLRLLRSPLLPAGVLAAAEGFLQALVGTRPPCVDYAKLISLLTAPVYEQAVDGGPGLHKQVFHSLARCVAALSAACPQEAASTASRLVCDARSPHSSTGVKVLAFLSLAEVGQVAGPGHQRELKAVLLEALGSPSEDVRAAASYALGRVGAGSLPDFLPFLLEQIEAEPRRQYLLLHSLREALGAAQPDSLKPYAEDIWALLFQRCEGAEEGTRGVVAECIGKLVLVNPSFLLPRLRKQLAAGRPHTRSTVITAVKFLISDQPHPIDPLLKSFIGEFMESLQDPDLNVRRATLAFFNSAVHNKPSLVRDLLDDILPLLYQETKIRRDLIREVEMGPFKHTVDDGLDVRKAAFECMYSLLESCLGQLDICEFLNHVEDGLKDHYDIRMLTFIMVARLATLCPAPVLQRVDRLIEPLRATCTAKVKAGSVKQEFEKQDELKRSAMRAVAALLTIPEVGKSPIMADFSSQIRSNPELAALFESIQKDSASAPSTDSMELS
# UniProt O60825: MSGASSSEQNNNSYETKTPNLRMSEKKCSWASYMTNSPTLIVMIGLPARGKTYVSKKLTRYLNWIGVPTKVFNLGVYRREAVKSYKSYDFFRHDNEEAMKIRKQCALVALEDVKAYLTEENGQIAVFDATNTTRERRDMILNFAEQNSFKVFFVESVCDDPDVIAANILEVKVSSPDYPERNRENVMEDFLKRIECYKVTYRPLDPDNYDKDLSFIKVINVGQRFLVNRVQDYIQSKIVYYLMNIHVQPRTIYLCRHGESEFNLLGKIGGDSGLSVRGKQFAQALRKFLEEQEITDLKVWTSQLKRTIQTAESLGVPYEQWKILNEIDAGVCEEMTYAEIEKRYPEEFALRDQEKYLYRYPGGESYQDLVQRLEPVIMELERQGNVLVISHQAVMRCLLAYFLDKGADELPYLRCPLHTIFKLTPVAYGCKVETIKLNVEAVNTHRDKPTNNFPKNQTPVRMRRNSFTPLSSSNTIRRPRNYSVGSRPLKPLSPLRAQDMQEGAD
# UniProt O60831: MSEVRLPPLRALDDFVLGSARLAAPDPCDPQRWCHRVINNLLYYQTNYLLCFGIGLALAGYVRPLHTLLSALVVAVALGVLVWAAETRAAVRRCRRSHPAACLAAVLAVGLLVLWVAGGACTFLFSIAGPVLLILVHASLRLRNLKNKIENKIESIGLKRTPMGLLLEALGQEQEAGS
# UniProt O95782: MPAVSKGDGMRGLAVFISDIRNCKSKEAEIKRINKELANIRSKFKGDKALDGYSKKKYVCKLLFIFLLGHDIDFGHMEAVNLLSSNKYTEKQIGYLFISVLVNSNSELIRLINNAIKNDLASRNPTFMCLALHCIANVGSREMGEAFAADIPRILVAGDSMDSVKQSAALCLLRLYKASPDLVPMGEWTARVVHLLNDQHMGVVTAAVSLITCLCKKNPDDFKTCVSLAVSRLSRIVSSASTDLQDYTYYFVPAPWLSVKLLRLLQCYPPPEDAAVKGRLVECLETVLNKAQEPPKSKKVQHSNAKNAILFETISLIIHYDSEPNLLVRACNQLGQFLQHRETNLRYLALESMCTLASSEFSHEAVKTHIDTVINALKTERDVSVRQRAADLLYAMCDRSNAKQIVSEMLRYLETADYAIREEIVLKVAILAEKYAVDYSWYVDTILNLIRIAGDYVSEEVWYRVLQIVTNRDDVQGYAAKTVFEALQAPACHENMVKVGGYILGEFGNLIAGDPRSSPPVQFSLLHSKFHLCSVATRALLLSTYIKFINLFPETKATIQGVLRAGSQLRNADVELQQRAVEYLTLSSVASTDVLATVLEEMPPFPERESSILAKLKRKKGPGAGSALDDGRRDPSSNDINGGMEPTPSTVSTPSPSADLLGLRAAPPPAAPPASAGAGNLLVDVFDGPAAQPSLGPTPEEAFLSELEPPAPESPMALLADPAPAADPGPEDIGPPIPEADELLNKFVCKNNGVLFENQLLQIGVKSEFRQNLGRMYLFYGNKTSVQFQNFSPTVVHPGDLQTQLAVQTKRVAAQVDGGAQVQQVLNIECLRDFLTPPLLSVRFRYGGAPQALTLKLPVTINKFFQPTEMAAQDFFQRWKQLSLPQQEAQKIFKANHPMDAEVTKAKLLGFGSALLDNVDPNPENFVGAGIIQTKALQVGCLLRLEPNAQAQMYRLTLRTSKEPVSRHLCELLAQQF
# ± gives the standard deviation of the averaged measurements. This is a selection; strong and weak results do not stand in their true shares.
# Compound: Nc1ncnc2c1ncn2[C@@H]1O[C@H](COP(=O)(O)OP(=O)(O)OP(=O)(O)O)[C@@H](O)[C@H]1O [adenosine triphosphate]
# Experiment: NP40-soluble protein abundance relative to vehicle (solubility fold change) (ratio); higher = more soluble protein in presence of ATP
# Details: concentration: 6mM
# How it was run: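 Each value is a fold change relative to the detergent-processed vehicle, calculated per replicate from vsn-normalised intensities. Jurkat crude lysate received eight concentrations (0.1 to 10 mM) for 10 min at room temperature and 3 min at 37 °C, then was solubilised in 0.8% NP40 with benzonase (60 min, 4 °C). The ultracentrifuged supernatant was TMT-labelled and run by LC-MS/MS in three independent experiments.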
row,Target,NP40-soluble protein abundance
1,VPS26A (UniProt O75436),0.96 ± 0.15
2,ZBTB7A (UniProt O95365),1.1 ± 0.14
3,UniProt O95758-2|O95758-6|O95758 and related entries,0.998 ± 0.046
4,NDUFS6 (UniProt O75380),0.953 ± 0.12
5,UniProt O75396,0.955 ± 0.043
6,GRAP2 (UniProt O75791),0.921 ± 0.089
7,ROCK2 (UniProt O75116),0.981 ± 0.026
8,ZC3H11A (UniProt O75152),1.1 ± 0.025
9,RANBP6 (UniProt O60518),0.929 ± 0.13
10,MRPS14 (UniProt O60783),0.883 ± 0.27
11,ZMPSTE24 (UniProt O75844),0.922 ± 0.15
12,UniProt O94855 and related entries,0.927 ± 0.15
13,NDUFS3 (UniProt O75489),0.927 ± 0.061
14,UniProt O75928 and related entries,1 ± 0.072
15,UniProt O60880 and related entries,0.937 ± 0.08
16,UniProt O75179 and related entries,0.99 ± 0.044
17,RPP14 (UniProt O95059),0.924 ± 0.024
18,UTP20 (UniProt O75691),1.14 ± 0.12
19,UniProt O75494 and related entries,1.5 ± 0.18

row,Target,NP40-soluble protein abundance
1,UniProt O75592 and related entries,1.07 ± 0.19
2,UniProt O75330 and related entries,1.01 ± 0.03
3,UniProt O75164,1.16 ± 0.072
4,UniProt O75312,1.01 ± 0.029
5,UniProt O94874,1.1 ± 0.073
6,UniProt O94966-6|O94966-7|O94966-4,0.958 ± 0.028
7,GIGYF1 (UniProt O75420),1.25 ± 0.083
8,UniProt O75155 and related entries,0.895 ± 0.014
9,TOM1 (UniProt O60784),0.941 ± 0.05
10,UniProt O95298 and related entries,0.853 ± 0.12
11,BRD4 (UniProt O60885),1.06 ± 0.02
12,UniProt O60645 and related entries,1.01 ± 0.029
13,VAPB (UniProt O95292),1.01 ± 0.025
14,MAFK (UniProt O60675),0.983 ± 0.1
15,UniProt O60825 and related entries,0.952 ± 0.14
16,UniProt O60831 and related entries,0.931 ± 0.057
17,UniProt O95782 and related entries,1.02 ± 0.11
18,UniProt O75925 and related entries,0.838 ± 0.03

# Same assay, conditions: concentration: 8mM
row,Target,NP40-soluble protein abundance
1,VPS26A (UniProt O75436),1.05 ± 0.1
2,ZBTB7A (UniProt O95365),1.03 ± 0.17
3,UniProt O95758-2|O95758-6|O95758 and related entries,1.01 ± 0.023
4,NDUFS6 (UniProt O75380),0.866 ± 0.062
5,UniProt O75396,0.925 ± 0.018
6,GRAP2 (UniProt O75791),0.972 ± 0.048
7,ROCK2 (UniProt O75116),0.959 ± 0.018
8,ZC3H11A (UniProt O75152),1.12 ± 0.026
9,RANBP6 (UniProt O60518),0.924 ± 0.06
10,MRPS14 (UniProt O60783),0.834 ± 0.17
11,ZMPSTE24 (UniProt O75844),0.998 ± 0.048
12,UniProt O94855 and related entries,0.949 ± 0.035
13,NDUFS3 (UniProt O75489),0.98 ± 0.066
14,UniProt O75928 and related entries,1.01 ± 0.1
15,UniProt O60880 and related entries,0.887 ± 0.025
16,UniProt O75179 and related entries,0.941 ± 0.015
17,RPP14 (UniProt O95059),1.09 ± 0.095
18,UTP20 (UniProt O75691),1.23 ± 0.084
19,UniProt O75494 and related entries,1.49 ± 0.11

row,Target,NP40-soluble protein abundance
1,UniProt O75592 and related entries,1.05 ± 0.19
2,UniProt O75330 and related entries,0.988 ± 0.054
3,UniProt O75164,1.08 ± 0.062
4,UniProt O75312,0.919 ± 0.031
5,UniProt O94874,1.13 ± 0.037
6,UniProt O94966-6|O94966-7|O94966-4,0.976 ± 0.022
7,GIGYF1 (UniProt O75420),1.18 ± 0.083
8,UniProt O75155 and related entries,0.914 ± 0.04
9,TOM1 (UniProt O60784),0.94 ± 0.072
10,UniProt O95298 and related entries,0.896 ± 0.064
11,BRD4 (UniProt O60885),1 ± 0.028
12,UniProt O60645 and related entries,1.05 ± 0.04
13,VAPB (UniProt O95292),0.932 ± 0.02
14,MAFK (UniProt O60675),1.01 ± 0.062
15,UniProt O60825 and related entries,1.04 ± 0.038
16,UniProt O60831 and related entries,0.932 ± 0.025
17,UniProt O95782 and related entries,1.13 ± 0.017
18,UniProt O75925 and related entries,0.894 ± 0.062

# Same assay, conditions: concentration: 10mM
row,Target,NP40-soluble protein abundance
1,VPS26A (UniProt O75436),0.995 ± 0.087
2,ZBTB7A (UniProt O95365),1.07 ± 0.18
3,UniProt O95758-2|O95758-6|O95758 and related entries,0.998 ± 0.025
4,NDUFS6 (UniProt O75380),0.857 ± 0.033
5,UniProt O75396,0.863 ± 0.068
6,GRAP2 (UniProt O75791),0.94 ± 0.047
7,ROCK2 (UniProt O75116),0.961 ± 0.022
8,ZC3H11A (UniProt O75152),1.17 ± 0.033
9,RANBP6 (UniProt O60518),0.975 ± 0.035
10,MRPS14 (UniProt O60783),0.74 ± 0.17
11,ZMPSTE24 (UniProt O75844),0.987 ± 0.05
12,UniProt O94855 and related entries,0.982 ± 0.078
13,NDUFS3 (UniProt O75489),0.95 ± 0.042
14,UniProt O75928 and related entries,1.03 ± 0.083
15,UniProt O60880 and related entries,0.952 ± 0.025
16,UniProt O75179 and related entries,0.991 ± 0.031
17,RPP14 (UniProt O95059),1.11 ± 0.094
18,UTP20 (UniProt O75691),1.31 ± 0.031
19,UniProt O75494 and related entries,1.56 ± 0.2

row,Target,NP40-soluble protein abundance
1,UniProt O75592 and related entries,1.04 ± 0.13
2,UniProt O75330 and related entries,0.997 ± 0.042
3,UniProt O75164,1.11 ± 0.025
4,UniProt O75312,0.937 ± 0.026
5,UniProt O94874,1.175 ± 0.011
6,UniProt O94966-6|O94966-7|O94966-4,0.978 ± 0.03
7,GIGYF1 (UniProt O75420),1.23 ± 0.099
8,UniProt O75155 and related entries,0.939 ± 0.034
9,TOM1 (UniProt O60784),0.935 ± 0.018
10,UniProt O95298 and related entries,0.756 ± 0.096
11,BRD4 (UniProt O60885),1.03 ± 0.016
12,UniProt O60645 and related entries,1.03 ± 0.046
13,VAPB (UniProt O95292),0.909 ± 0.025
14,MAFK (UniProt O60675),0.987 ± 0.094
15,UniProt O60825 and related entries,1.03 ± 0.031
16,UniProt O60831 and related entries,0.931 ± 0.016
17,UniProt O95782 and related entries,1.15 ± 0.048
18,UniProt O75925 and related entries,1.14 ± 0.085
